In this assay the test system is L1210 leukemia ip in BDF1 mice, survival T/C. Description: NCI In Vivo Anticancer Drug Screen. Data for tumor model L1210 Leukemia (intraperitoneal) in B6D2F1 (BDF1) mice. As to conditions: T/C endpoint: mean survival time, higher T/C = longer survival.

The list shows only some results of the screen, not a fair sample: its compounds were picked by chemical class. Not every dose and run of a compound is shown. T/C gives the treated animals as a percentage of the vehicle group. Where survival is the endpoint, the PubChem record calls one and a half times the control and up active, and a quarter to a half above the control has no call in these data; cut-offs in other NCI protocols can differ. Some T/C values are marked as having no survivor count here; that says nothing about deaths at the dose. Schedules are NCI's codes, read here as Q, the interval in days (D) or hours (H), X, the number of doses. Some entries were tested several times; the results are listed from low to high.

T/C data for two compounds are collected here from PubChem BioAssay AID248 (DTP/NCI, 2004).

On to `O=S=NN(CCCl)CCCl`, for which the T/C was 98 % of control [survivor count not shown] (dose: 2.1 mg/kg/injection, schedule: Q01DX015 (ip), vehicle: carboxymethylcellulose (CMC)); 102 % of control [survivor count not shown] (dose: 3.6 mg/kg/injection, schedule: Q01DX015 (ip), vehicle: carboxymethylcellulose (CMC)); 112 % of control [survivor count not shown] (dose: 5.0 mg/kg/injection, schedule: Q01DX001 (ip), vehicle: carboxymethylcellulose (CMC)); 114 % of control [survivor count not shown] (dose: 6.0 mg/kg/injection, schedule: Q01DX015 (ip), vehicle: carboxymethylcellulose (CMC)); 113 % of control [survivor count not shown] (dose: 9.0 mg/kg/injection, schedule: Q01DX001 (ip), vehicle: carboxymethylcellulose (CMC)); 140 % of control [survivor count not shown] (dose: 10.0 mg/kg/injection, schedule: Q01DX001 (ip), vehicle: carboxymethylcellulose (CMC)). The T/C was 117 % of control [survivor count not shown] (dose: 10.0 mg/kg/injection, schedule: Q01DX015 (ip), vehicle: carboxymethylcellulose (CMC)); 118 % of control [survivor count not shown] (dose: 13.0 mg/kg/injection, schedule: Q01DX001 (ip), vehicle: carboxymethylcellulose (CMC)); 135 [survivor count not shown] and 146 % of control [survivor count not shown] (dose: 20.0 mg/kg/injection, schedule: Q01DX001 (ip), vehicle: carboxymethylcellulose (CMC)); 143 % of control [survivor count not shown] (dose: 30.0 mg/kg/injection, schedule: Q01DX001 (ip), vehicle: carboxymethylcellulose (CMC)).

Consider `CC1(C)OCC(COP(N)(=O)N(CCCl)CCCl)O1` (stereo not drawn), for which the T/C is 92 % of control [survivor count not shown] (dose: 100.0 mg/kg/injection, schedule: Q08DX002 (ip), vehicle: saline); 103 % of control [survivor count not shown] (dose: 125.0 mg/kg/injection, schedule: Q01DX001 (ip), vehicle: saline); 87 % of control [survivor count not shown] (dose: 200.0 mg/kg/injection, schedule: Q08DX002 (ip), vehicle: saline); 106 % of control [survivor count not shown] (dose: 250.0 mg/kg/injection, schedule: Q01DX001 (ip), vehicle: saline); 103 % of control [survivor count not shown] (dose: 400.0 mg/kg/injection, schedule: Q08DX002 (ip), vehicle: saline); 101 % of control [survivor count not shown] (dose: 500.0 mg/kg/injection, schedule: Q01DX001 (ip), vehicle: saline). Moreover, the T/C is 107 % of control [survivor count not shown] (dose: 800.0 mg/kg/injection, schedule: Q08DX002 (ip), vehicle: saline) and 108 % of control [survivor count not shown] (dose: 1000.0 mg/kg/injection, schedule: Q01DX001 (ip), vehicle: saline).
